In US20200199250A1 (KYMAB, published 2020):
Results are given in words; binding and its absence hold for the method and conditions named. Some binding calls cover weakened binding; strength is not graded here.

The chains behind the UniProt entries cited, without tags or fusion partners. Where a name states a change or a piece, a line headed by the entry shows the natural chain unless it says otherwise.
UniProt P00742: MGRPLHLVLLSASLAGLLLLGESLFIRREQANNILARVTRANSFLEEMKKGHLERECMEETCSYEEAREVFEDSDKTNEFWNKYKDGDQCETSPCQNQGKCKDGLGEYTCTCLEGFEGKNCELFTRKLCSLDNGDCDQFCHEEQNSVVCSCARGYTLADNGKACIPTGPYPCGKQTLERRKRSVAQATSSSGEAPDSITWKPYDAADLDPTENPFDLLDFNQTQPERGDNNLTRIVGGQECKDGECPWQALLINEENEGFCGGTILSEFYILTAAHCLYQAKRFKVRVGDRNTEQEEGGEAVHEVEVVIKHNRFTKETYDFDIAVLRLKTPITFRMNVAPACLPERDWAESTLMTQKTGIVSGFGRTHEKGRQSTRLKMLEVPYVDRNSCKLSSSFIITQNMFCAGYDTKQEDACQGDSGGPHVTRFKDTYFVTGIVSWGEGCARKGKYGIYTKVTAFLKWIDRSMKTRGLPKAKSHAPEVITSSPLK

Target: human factor X (human, UniProt P00742 41-179; P00742 183-488)
Test: SPR as in Example 10, IgG captured, FX analyte

B1: TINA-0616.0128 (antibody, V domains shown)
VH: QVQLIQSGAEVKKPGASVKVSCKASRYSFTSYYMHWVRQAPGQGLEWMGIINPKSGSTSYAQKFQGRVTMTRDTSTSTVYMELSSLRSEDTAVYYCARDGYGSSSRCIQLWGQGTLVTVSS
VL: SYVLTQPPSVSVAPGETARITCGGDNIGRKSVYWYQQKSGQAPVLVIYYDSDRPSGIPERFSGSNSGNTATLTISRVEAGDEADYYCQVWDGSSDHWVFGGGTKLTVL
Q: With B1 as the binder, how does the binding read?
A: The binding was “binds”.

B2: TINA-0638.0128 (antibody, V domains shown)
VH: QVQLIQSGAEVKKPGASVKVSCKASRYSFTSYYMHWVRQAPGQGLEWMGIINPKSGSTSYAQKFQGRVTMTRDTSTSTVYMELSSLRSEDTAVYYCARDGYGSSSRCLMLWGQGTLVTVSS
VL: SYVLTQPPSVSVAPGETARITCGGDNIGRKSVYWYQQKSGQAPVLVIYYDSDRPSGIPERFSGSNSGNTATLTISRVEAGDEADYYCQVWDGSSDHWVFGGGTKLTVL
Q: With B2 as the binder, how does the binding read?
A: The binding was “binds”.
